Experimental data from paper PMC2323305.
These are yes or no findings as the source states them, for the method shown. Binding seen in cells or lysates may run through a third protein.

Amino acid sequences for entries named in this document (tags omitted).
UniProt O77430: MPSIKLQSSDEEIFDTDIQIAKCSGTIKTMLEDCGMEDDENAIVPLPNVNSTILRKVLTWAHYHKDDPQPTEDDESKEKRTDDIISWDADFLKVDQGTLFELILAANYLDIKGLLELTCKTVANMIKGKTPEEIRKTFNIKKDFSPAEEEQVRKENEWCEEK
UniProt P40797: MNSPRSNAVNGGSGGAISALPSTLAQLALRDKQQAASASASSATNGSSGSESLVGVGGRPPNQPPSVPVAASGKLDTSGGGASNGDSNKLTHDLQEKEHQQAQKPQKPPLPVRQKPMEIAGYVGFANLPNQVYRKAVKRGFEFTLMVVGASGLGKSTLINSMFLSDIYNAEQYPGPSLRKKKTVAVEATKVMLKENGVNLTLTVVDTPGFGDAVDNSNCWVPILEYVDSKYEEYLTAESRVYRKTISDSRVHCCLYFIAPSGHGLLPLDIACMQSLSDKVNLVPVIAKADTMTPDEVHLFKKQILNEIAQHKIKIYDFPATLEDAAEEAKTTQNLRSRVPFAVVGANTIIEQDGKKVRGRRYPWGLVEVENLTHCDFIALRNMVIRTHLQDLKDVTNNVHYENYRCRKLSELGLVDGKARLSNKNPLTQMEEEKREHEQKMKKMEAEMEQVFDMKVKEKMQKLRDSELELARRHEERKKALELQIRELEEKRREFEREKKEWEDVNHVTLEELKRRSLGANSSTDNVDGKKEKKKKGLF

Columns and labels:
[1] = molecular target: SkpA (Drosophila melanogaster (endogenous in 0-4-h embryos)) (UniProt O77430); test: co-IP; clarified 0-4-h embryo extract in C buffer; affinity-purified anti-SkpA or anti-Pnut antibodies immobilised (Profound Co-immunoprecipitation kit, Pierce), control beads without antibody; Western blot for SkpA, SkAP and Pnut
[2] = molecular target: Pnut (Drosophila melanogaster (endogenous in 0-4-h embryos)) (UniProt P40797); test: as above

Row | binding [1] | binding [2] | Substance
1 | no binding | – | Pnut (from UniProt P40797 1-539)
2 | – | no binding | SkpA (from UniProt O77430 1-162)
